We go through two substances from paper PMC4944148.

Protein sequences, listed by entry. Tags and fused reporters are not part of them.
UniProt Q15672: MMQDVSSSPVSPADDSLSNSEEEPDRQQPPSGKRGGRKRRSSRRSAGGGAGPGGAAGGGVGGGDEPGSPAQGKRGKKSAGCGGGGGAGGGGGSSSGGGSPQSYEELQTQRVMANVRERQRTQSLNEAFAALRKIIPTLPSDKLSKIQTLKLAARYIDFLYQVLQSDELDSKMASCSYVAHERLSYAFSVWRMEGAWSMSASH
UniProt Q13263: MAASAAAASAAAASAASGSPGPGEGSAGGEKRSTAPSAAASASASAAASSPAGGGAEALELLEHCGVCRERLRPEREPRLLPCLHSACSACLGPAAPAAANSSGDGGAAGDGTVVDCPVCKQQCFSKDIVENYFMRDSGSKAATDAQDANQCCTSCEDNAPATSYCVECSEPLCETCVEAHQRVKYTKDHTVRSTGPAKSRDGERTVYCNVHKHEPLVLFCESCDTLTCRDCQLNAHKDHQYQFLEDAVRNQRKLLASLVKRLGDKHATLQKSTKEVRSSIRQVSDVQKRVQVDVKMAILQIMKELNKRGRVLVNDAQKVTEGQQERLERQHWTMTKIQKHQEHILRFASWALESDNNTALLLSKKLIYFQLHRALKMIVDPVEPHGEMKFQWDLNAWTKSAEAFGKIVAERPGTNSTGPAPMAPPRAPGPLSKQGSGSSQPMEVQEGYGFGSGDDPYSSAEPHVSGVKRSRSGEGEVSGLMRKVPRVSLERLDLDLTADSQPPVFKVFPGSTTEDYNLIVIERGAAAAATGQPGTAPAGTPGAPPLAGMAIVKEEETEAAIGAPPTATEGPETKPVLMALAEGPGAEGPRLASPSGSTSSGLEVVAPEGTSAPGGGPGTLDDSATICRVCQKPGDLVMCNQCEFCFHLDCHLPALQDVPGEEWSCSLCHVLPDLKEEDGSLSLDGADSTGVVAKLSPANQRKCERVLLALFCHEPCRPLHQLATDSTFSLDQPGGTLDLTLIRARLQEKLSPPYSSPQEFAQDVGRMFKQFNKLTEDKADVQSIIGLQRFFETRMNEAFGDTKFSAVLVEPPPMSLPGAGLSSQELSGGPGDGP

These are yes or no findings as the source states them, for the method shown. In cells and extracts the contact can be indirect. Some binding calls cover weakened binding; strength is not graded here.

Assay [1] has as its target GST-TWIST1 fusion protein (human) (UniProt Q15672). Kind of assay: pull-down; GST-TWIST1 on glutathione-sepharose beads incubated with 35S-labeled in vitro translated TRIM28 for 2 h at 4 °C; washed five times (20 mM Tris-HCl, 150 mM NaCl, 1 mM DTT, 1 mM EDTA, 0.1% NP-40); only the target purified.
Assay [2] has as its target Flag-tagged TWIST1 (human) (UniProt Q15672). Kind of assay: co-IP; HEK293 inducible cell line expressing Flag-tagged TWIST1 (DOX); lysis in EBC buffer (20 mM Tris-HCl pH 8.0, 125 mM NaCl, 2 mM EDTA, 0.5% NP-40); anti-Flag M2 agarose beads, 3 h at 4 °C; Western blot with TRIM28 antibody.

In the case of “35S-labeled TRIM28 protein, in vitro translated (from UniProt Q13263 1-835)”, the binding result in assay [1] is on record as “binds”. With “Tripartite motif containing 28 (TRIM28), endogenous in HEK293 cells (from UniProt Q13263 1-835)”, the binding result in assay [2] was “binds”.
